Data from PMC9114808.
No constants are given. Whether binding was seen depends on the method and setting. In cells and extracts the contact can be indirect. Some entries that bind do so weakly or less than the wild type. Tags and fused reporters may be left off the sequences shown.

By UniProt entry, the sequences of proteins in these tests, tags left out.
UniProt P63104: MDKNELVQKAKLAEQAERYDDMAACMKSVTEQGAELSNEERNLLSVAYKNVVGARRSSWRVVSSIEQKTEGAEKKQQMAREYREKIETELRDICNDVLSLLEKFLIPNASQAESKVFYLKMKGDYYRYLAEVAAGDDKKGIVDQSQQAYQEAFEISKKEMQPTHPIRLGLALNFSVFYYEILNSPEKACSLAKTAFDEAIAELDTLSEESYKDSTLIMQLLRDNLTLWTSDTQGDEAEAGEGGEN

How the values were obtained:
HA-14-3-3 gamma = molecular target: T1, HA-14-3-3 gamma (UniProt P61981); experiment: co-IP; HEK293T co-transfected with GFP-Sept7-WT and HA-14-3-3 gamma, zeta or both; 0.1 μM okadaic acid for 10 min before lysis; anti-HA affinity gel; blot for pT426 Sept7 and HA
T1 sequence: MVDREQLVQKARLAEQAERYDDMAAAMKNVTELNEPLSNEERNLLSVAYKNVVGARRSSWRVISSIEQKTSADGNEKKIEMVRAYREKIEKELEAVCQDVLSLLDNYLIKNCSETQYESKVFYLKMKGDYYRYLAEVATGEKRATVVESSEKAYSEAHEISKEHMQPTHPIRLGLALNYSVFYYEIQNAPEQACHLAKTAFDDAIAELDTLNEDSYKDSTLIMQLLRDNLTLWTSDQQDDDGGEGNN

HA-14-3-3 zeta = HA-14-3-3 zeta (UniProt P63104); experiment: as above

binding (HA-14-3-3 gamma): binds
binding (HA-14-3-3 zeta): no binding
B1: GFP-tagged Sept7-WT, phosphorylated at T426 (protein, UniProt Q16181 1-437)
chain: MSVSARSAAAEERSVNSSTMVAQQKNLEGYVGFANLPNQVYRKSVKRGFEFTLMVVGESGLGKSTLINSLFLTDLYSPEYPGPSHRIKKTVQVEQSKVLIKEGGVQLLLTIVDTPGFGDAVDNSNCWQPVIDYIDSKFEDYLNAESRVNRRQMPDNRVQCCLYFIAPSGHGLKPLDIEFMKRLHEKVNIIPLIAKADTLTPEECQQFKKQIMKEIQEHKIKIYEFPETDDEEENKLVKKIKDRLPLAVVGSNTIIEVNGKRVRGRQYPWGVAEVENGEHCDFTILRNMLIRTHMQDLKDVTNNVHYENYRSRKLAAVTYNGVDNNKNKGQLTKSPLAQMEEERREHVAKMKKMEMEMEQVFEMKVKEKVQKLKDSEAELQRRHEQMKKNLEAQHKELEEKRRQFEDEKANWEAQQRILEQQNSSRTLEKNKKKGKIF
modifications: phosphothreonine at T426 (detected with the pT426 antibody)
